Earlier results as cited in US6572880B2, “Methods and transdermal compositions for pain relief” (priority 1996, dated 2003).

Settings: oral; Dextroamphetamine as time release spansule; cited from earlier work

Compound | duration of action
C[C@H](N)Cc1ccccc1 [Dextroamphetamine] | 5 to 6 h
COC(=O)C(c1ccccc1)C1CCCCN1 (centres unmarked) [Methylphenidate] | 2 to 4 h
